Values after ≈ are worked out from the molar mass of the structure shown. Where two headings read alike, the source gives them in different places.
System: S. aureus (ATCC29213)
Experiment: MIC assay, broth microdilution, S. aureus
Format: cell-based
Conditions: Staphylococcus aureus
Protocol: Moreover, variations in activity towards both strains and between the different site‐ and endo/exo isomers remained limited to a factor of 4. The activity of 3 also very closely resembles that of thiostrepton, showing that even removing part of the tail region has little effect on its activity.
Biological Activity Assays
Preparation of antimicrobial agents
Thiostrepton and its variants were dissolved and diluted in DMSO to a concentration of 640 µg/ml, and stored at -20 °C. Before use, they were diluted 20 fold in Mueller Hinton Broth 2 (CAMHB; cation-adjusted, Sigma-Aldrich).
Dilution of the thiostrepton compounds in CAMHB was done in 50 % volume steps to prevent precipitation.
Vancomycin for the quality controls was dissolved in MQ to a concentration of 256 mg/ml and stored at -20 °C.
It was diluted in CAMHB to a final concentration of 256 µg/ml before use.
Strains and growth conditions
The MIC values of thiostrepton and its variants were determined for Staphylococcus aureus LMG 10147 […]
from glycerol stocks on LB (Formedium™) and GM17 (Difco™) plates respectively. […]
Well 11, lacking the test compound, functions as a growth control and well 12 as a sterility control. […] To ensure MIC data reliability, MIC values for vancomycin were determined for every series of tests performed, as described […]

SMILES: CN[C@H](CC(C)C)C(=O)N[C@H]1C(=O)N[C@@H](CC(N)=O)C(=O)N[C@H]2C(=O)N[C@H]3C(=O)N[C@H](C(=O)N[C@H](C(=O)O)c4cc(O)cc(O)c4-c4cc3ccc4O)[C@H](O)c3ccc(c(Cl)c3)Oc3cc2cc(c3O[C@@H]2O[C@H](CO)[C@@H](O)[C@H](O)[C@H]2O[C@H]2C[C@](C)(N)[C@H](O)[C@H](C)O2)Oc2ccc(cc2Cl)[C@H]1O [Vancomycin]
- MIC (ATCC 29213 / LMG10147, 20 h, read-out: MIC against S. aureus): 1 µg/mL (≈ 0.69 µM)
- MIC (ATCC 29213 / LMG10147 / MSSA, 20 h, read-out: MIC against S. aureus (MSSA)): 1 µg/mL (≈ 0.69 µM)
